The text below walks through data of publication doi:10.1101/2025.02.17.637997, “Phosphorylation-State Modulated Binding of HSP70: Structural Insights and Compensatory Protein Engineering” (bioRxiv, 2025).

By UniProt entry, the sequences of proteins in these tests, tags left out. Where a name states a change or a piece, a line headed by the entry shows the natural chain unless it says otherwise.
UniProt Q9UNE7: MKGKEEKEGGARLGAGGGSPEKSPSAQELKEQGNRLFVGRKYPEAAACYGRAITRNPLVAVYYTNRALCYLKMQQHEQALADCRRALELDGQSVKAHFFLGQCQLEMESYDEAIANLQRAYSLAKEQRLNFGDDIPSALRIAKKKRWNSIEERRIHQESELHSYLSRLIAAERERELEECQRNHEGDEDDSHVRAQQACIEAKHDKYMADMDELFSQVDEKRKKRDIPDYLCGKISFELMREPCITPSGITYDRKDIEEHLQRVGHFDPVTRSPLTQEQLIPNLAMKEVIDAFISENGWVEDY

Results are given in words; binding and its absence hold for the method and conditions named. Some binding calls cover weakened binding; strength is not graded here.

In this assay the target is T1, N-FITC-Ahx-….
T1 sequence (peptide, FITC-Ahx on the N-terminus): GSGPTIEEVD
The assay can be described thus: fluorescence polarisation; 20 nM N-terminally FITC-labelled peptide, recombinant CHIP constructs at increasing concentrations, 30 minutes at room temperature; one site/total binding fit with Bmax constrained to 100; both purified.

With “recombinant full-length CHIP-K30A (from UniProt Q9UNE7 1-303) (enzyme)”, the binding entry was “binds weakly”.
